# PubChem BioAssay AID652272 – Drosophila RNAi Screening Center | 2013
# Aim: 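Finding fly genes that regulate Hedgehog signal transduction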 (primary screen)
# Cells: Drosophila clone 8 (Cl8) cells
# Reagents: long dsRNA against Drosophila genes
# Detection: 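Plate reader light from a firefly reporter under a ptc promoter fragment that responds to Hedgehog, with Renilla light as transfection reference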
# Direction: firefly Hh reporter signal: higher = more ptc reporter light; Renilla reference signal: higher = more Renilla control light
# Active means: 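Called a hit if the two-replicate mean z-score lies below -2 or above +3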
# Calls: active = hit: reporter lowered or raised; inactive = not a hit
# The deposit covers about 21,000 reagents; shown is a random part of those with a known target gene and a result. Over the whole deposit, 503 (2.4%) are marked active. 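Raw plate light values, not normalised; calls rest on replicate z-scores that were not deposited; hits include reporter decreases as well as increases.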 No sequences are given here. Not given: the amount of reagent, the time to read-out.
target,amplicon,"firefly Hh reporter signal, replicate 1","firefly Hh reporter signal, replicate 2","Renilla reference signal, replicate 1","Renilla reference signal, replicate 2",Outcome
Crtp (GeneID 44276),DRSC04604,1.07e5,60553,2012,5801,inactive
CG13385 (GeneID 34164),DRSC02259,1.18e5,60941,2474,5322,inactive
Gen (GeneID 38594),DRSC09679,1.48e5,94218,5827,3304,inactive
Ir7a (GeneID 31686),DRSC17866,60272,2.23e5,2330,8246,inactive
CG18233 (GeneID 40025),DRSC10308,73463,,5091,2264,inactive
CG43127 (GeneID 8673982),DRSC09039,1.23e5,2.30e5,3936,9760,inactive
pds5 (GeneID 36286),DRSC06670,66000,46560,2589,1600,inactive
CG11191 (GeneID 35765),DRSC06056,89485,63469,4432,2864,inactive
CG12869 (GeneID 36616),DRSC06208,71376,42889,1824,3234,inactive
CG2218 (GeneID 43611),DRSC15428,1.11e5,1.09e5,2630,3429,inactive
fln (GeneID 40185),DRSC11346,1.52e5,88668,5127,4003,inactive
CG11983 (GeneID 41081),DRSC14458,80097,82407,3104,2424,inactive
Rint1 (GeneID 38807),DRSC11010,90892,51200,3744,2215,inactive
Prosbeta5R1 (GeneID 37690),DRSC04581,87426,57027,885,5276,inactive
aln (GeneID 2768997),DRSC08240,75530,48357,2587,3580,inactive
alpha-Est1 (GeneID 40909),DRSC12612,91203,89955,3728,3720,inactive
RpL34b (GeneID 41120),DRSC16475,65895,83106,2908,4157,active
mRpL48 (GeneID 33348),DRSC00506,1.61e5,1.26e5,3723,3466,inactive
Sod2 (GeneID 36878),DRSC07554,1.29e5,1.13e5,5077,4384,inactive
Pex19 (GeneID 34630),DRSC02839,1.07e5,53632,4347,2416,inactive
CG15741 (GeneID 32137),DRSC19707,74241,1.75e5,2403,7564,inactive
CG3557 (GeneID 33426),DRSC00614,1.25e5,82252,5085,3286,inactive
CG12290 (GeneID 43182),DRSC14497,98246,90221,2874,2569,inactive

Records listed so far marked active:
target,amplicon,"firefly Hh reporter signal, replicate 1","firefly Hh reporter signal, replicate 2","Renilla reference signal, replicate 1","Renilla reference signal, replicate 2",Outcome
RpL34b (GeneID 41120),DRSC16475,65895,83106,2908,4157,active
